Results as given in PubChem BioAssay AID602313 (National Center for Advancing Translational Sciences (NCATS), 2012).
The whole screen tested about 390,000 compounds, of which about 760 (0.19%) were called active. Inconclusive results, whose numbers are uncertain, are shown with a selection of clear calls. Calls follow the shape of the dose curve; as a rule, active = well fitted inhibition curve with a large enough effect; inconclusive = small, poorly fitted or top-dose-only effect; inactive = flat fitted curve, though single readings scatter. A potency beside an inconclusive call is a rough fit, not a confirmed value.

Test: qHTS for Inhibitors of Vif-A3F Interactions: qHTS; also: nearly all actives have a fitted effect of over 65% in size
Conditions: HeLa A3F-eYFP + Vif (tagged APOBEC3F with the HIV-1 protein that degrades it), YFP fluorescence increase; series mostly up to 46.1 µM
Outline: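 HeLa cells stably expressing Vif plus C-terminally eYFP-tagged A3F were seeded, incubated overnight at 37 deg C, dosed with compound, incubated overnight again at 37 deg C. Yellow fluorescence (Ex 488/Em 500-530) reported blocked Vif-mediated A3F-eYFP degradation.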
Potency is read from the fitted curve at half-maximal effect.

Row | SMILES | Potency
1 | CC1=C(C#N)C(=O)NC(=O)/C1=C/c1ccc(-c2ccc(S(N)(=O)=O)cc2)o1 | inactive
2 | COC(=O)C1=C(C)N(c2ccc(Cl)cc2)/C(=C/c2ccc(O)cc2)C1=O | inconclusive: 11.2 µM [inhibitor, single point]
3 | CC1(c2ccc(OC(F)F)cc2)NC(=O)N(CC(=O)Nc2cccc(S(N)(=O)=O)c2)C1=O (stereo unspecified) | inconclusive: 35.5 µM [inhibitor, single point]
4 | CCC(C)N(C(=O)COc1ccccc1C(=O)NCc1ccccc1)C1CCS(=O)(=O)C1 (stereo unspecified) | inactive
5 | CSC(=S)N/N=C(\C)c1ccc(Br)cc1 | inconclusive: 0.501 µM [inhibitor, partial curve, poor fit]
6 | CNC(=O)NC(=O)C(C)N1CCN(C/C=C/c2ccccc2)CC1 (stereo unspecified) | inconclusive: 15.8 µM [inhibitor, single point]
7 | CCc1ccc(O)c(N=Cc2ccccc2O)c1 | inconclusive: 25.1 µM [inhibitor, single point]
8 | Cc1ccc(/C=C/C(=O)N2CCN(c3ncccn3)CC2)o1 | inactive
9 | CCN(C(=O)CN1CCCc2cc(C)ccc21)c1c(N)n(Cc2ccccc2)c(=O)[nH]c1=O | inconclusive: 22.4 µM [inhibitor, partial curve, poor fit]
10 | Cc1ccc(-c2nn(-c3ccccc3)cc2/C=N/n2c(-c3ccncc3)n[nH]c2=S)cc1 | inconclusive: 35.5 µM [inhibitor, single point]
11 | Nc1c(C(=O)N/N=C/c2ccc(F)cc2)oc2nc(-c3ccccc3)cc(-c3ccco3)c12 | inconclusive: 2.24 µM [inhibitor, partial curve, poor fit]
12 | CCN1CCN(C2=CC3=CC(=C(C#N)C#N)CCC3CC2)CC1 (stereo unspecified) | inconclusive: 3.16 µM [inhibitor, full curve, poor fit]
13 | Cn1c(-c2cccc(F)c2)nc2c1c(=O)[nH]c(=O)n2Cc1ccccc1 | inconclusive: 35.5 µM [inhibitor, single point]
14 | COc1ccc2c(c1OC)C(=O)NC(C)=C(C(=O)OC(C)(C)C)C2O (stereo unspecified) | inactive
15 | COc1ccc(CN=Cc2[nH]c3ccc(Br)c(Cl)c3c2O)cc1 | inconclusive: 35.5 µM [inhibitor, single point]
16 | N#CC(c1cccc(C(F)(F)F)c1)(c1ncc(C(F)(F)F)cc1Cl)N1CCOCC1 (stereo unspecified) | inactive
17 | N#C/C(=C\c1ccc(N2CCOCC2)o1)c1nc2ccccc2[nH]1 | inconclusive: 2.24 µM [inhibitor, partial curve, poor fit]
18 | N#CCSc1ccccc1NC(=O)CN1C(=O)C(=O)N(Cc2ccccc2)C1=O | inconclusive: 17.8 µM [inhibitor, partial curve, poor fit]
19 | O=C(NCCc1ccccc1)Nc1ccc2c(c1)OCO2 | inactive
20 | C=CCNC(=O)c1ccc2c3n(nc2c1)-c1ccc(Cl)cc1CO3 | inactive
21 | CCN(CC)CCNC(=O)c1cc2c(=O)n(C)c3ccccc3c2s1 | inconclusive: 6.31 µM [inhibitor, single point]
22 | CN1/C(=C/C(=O)c2ccc(Cl)cc2)Sc2cc3c(cc21)OCO3 | inconclusive: 5.62 µM [inhibitor, single point]

Row | SMILES | Potency
23 | Cc1ccc(C)c(Nc2nn3c(=O)c4ccc(C(=O)NCc5ccccc5)cc4nc3s2)c1 | inconclusive: 7.08 µM [inhibitor, partial curve, poor fit]
24 | CC(C)N1CCN(Cc2ccc(-c3ccccc3Cl)o2)CC1CCO (stereo unspecified) | inconclusive: 3.16 µM [inhibitor, single point]
25 | O=C(NC(=S)N1CCCCCC1)c1ccccc1Cl | inconclusive: 25.1 µM [inhibitor, single point]
26 | CCNc1c(NS(=O)(=O)c2ccc(Cl)s2)c(=O)oc2ccccc12 | inconclusive: 5.62 µM [inhibitor, single point]
27 | O=C1c2ccccc2NC(c2cn[nH]c2-c2ccccc2)N1O (stereo unspecified) | inactive
28 | Cc1ccc(NC(=O)CSc2nc3ccccc3c(=O)n2CCCC(=O)NCCCN2CCOCC2)cc1 | inactive
29 | COc1ccc(OCC(=O)NCc2ccc3c(c2)CCN3C(=O)c2cccc(C)c2)cc1 | inactive
30 | CC(C)(C)OC(=O)NC(CCNC=C1C(=O)OC(C)(C)OC1=O)C(=O)O (stereo unspecified) | inconclusive: 35.5 µM [inhibitor, partial curve, poor fit]
31 | O=C(NCc1cccc(F)c1)c1cccc2c1C(=O)c1ccc(N3CCC(Cc4ccccc4)CC3)cc1S2(=O)=O | active: 31.6 µM
32 | CN(Cc1c(F)cccc1Cl)C(=O)CNC(=O)c1sc2ccccc2c1Cl | inconclusive: 3.16 µM [inhibitor, partial curve, poor fit]
33 | CC(C)c1ccc(C2NC(=O)c3c(sc4c3CCN(C)C4)N2)cc1 (stereo unspecified) | inconclusive: 31.6 µM [inhibitor, single point]
34 | CCOC(=O)c1c(C)[nH]c(C(=O)OCC(=O)NC2CCS(=O)(=O)C2)c1C (stereo unspecified) | inactive
35 | CCc1ccc(CNC(=O)Cn2nc(C)c3nn(-c4ccc(Cl)cc4)c(C)c3c2=O)cc1 | inactive
36 | Cn1cccc1-c1cc2n(n1)CCC(=O)N2CCCC(=O)NCc1cccc(Cl)c1 | inactive
37 | O=C(Oc1ccccc1)N1CCN(C(=O)c2ccco2)CC1 | inconclusive: 20 µM [inhibitor, single point]
38 | O=C(NCCN1CCOCC1)c1ccc2c(c1)N(Cc1ccccc1)CCS2 | inactive
39 | Cc1c(C#N)c(O)n(C)c(=O)c1N=Nc1ccc(S(N)(=O)=O)cc1 | inconclusive: 5.62 µM [inhibitor, full curve]
40 | Cc1nc2ccccc2c2oc(C(=O)Nc3ccc4c(c3)OCCO4)cc12 | inconclusive: 35.5 µM [inhibitor, single point]
41 | CC(Oc1cccc(Cl)c1)C(=O)Nc1nc(-c2ccccn2)cs1 (stereo unspecified) | inconclusive: 6.31 µM [inhibitor, single point]
42 | O=C(N/N=C/c1cc(Br)cc(Cl)c1O)c1ccc2c(c1)OCO2 | inconclusive: 2.82 µM [inhibitor, partial curve, poor fit]
43 | CCOCc1cc(CN2CCN(c3cccc(C(F)(F)F)c3)CC2)c(O)c2ncccc12 | inconclusive: 12.6 µM [inhibitor, partial curve, poor fit]
44 | CC(C)OCc1c(C(=O)OC/C(O)=C(\C#N)c2nc3ccccc3[nH]2)oc2ccccc12 | inconclusive: 17.8 µM [inhibitor, partial curve, poor fit]

Quoted at random: 6 entries already listed, in no set order.
Row | SMILES | Potency
18 | N#CCSc1ccccc1NC(=O)CN1C(=O)C(=O)N(Cc2ccccc2)C1=O | inconclusive: 17.8 µM [inhibitor, partial curve, poor fit]
20 | C=CCNC(=O)c1ccc2c3n(nc2c1)-c1ccc(Cl)cc1CO3 | inactive
15 | COc1ccc(CN=Cc2[nH]c3ccc(Br)c(Cl)c3c2O)cc1 | inconclusive: 35.5 µM [inhibitor, single point]
29 | COc1ccc(OCC(=O)NCc2ccc3c(c2)CCN3C(=O)c2cccc(C)c2)cc1 | inactive
37 | O=C(Oc1ccccc1)N1CCN(C(=O)c2ccco2)CC1 | inconclusive: 20 µM [inhibitor, single point]
13 | Cn1c(-c2cccc(F)c2)nc2c1c(=O)[nH]c(=O)n2Cc1ccccc1 | inconclusive: 35.5 µM [inhibitor, single point]

The listing continues.

Row | SMILES | Potency
45 | CCSC1=N/C(=C\C=C2/Oc3ccccc3N2CC)C(=O)S1 | active: 6.31 µM
46 | CS(=O)(=O)c1ccc2c(c1)sc1nc(=O)c(/C=C3/C=CC(=O)C(O)=C3)c(N)n12 | inactive
47 | O=C(Nc1ccc(Br)cc1)c1cc(-c2ccc3c(c2)OCO3)on1 | inconclusive: 1.78 µM [inhibitor, partial curve, poor fit]
48 | CN1CCc2nc3sc(C(=O)c4ccc(F)cc4)c(N)c3cc2C1 | inconclusive: 35.5 µM [inhibitor, single point]
49 | Cc1nc(NC(C)c2ccccc2)c2c3c(sc2n1)CCC3 (stereo unspecified) | inactive
50 | COc1cccc(-c2csc3ncnc(Sc4nnnn4C)c23)c1 | inactive
51 | CCCCSc1n[nH]c(=S)c2nc[nH]c12 | inconclusive: 2.51 µM [inhibitor, partial curve, poor fit]
52 | Cc1ccc(S(=O)(=O)Nc2nc3ccccc3nc2Nc2cccc(S(=O)(=O)N3CCCC3)c2)cc1 | active: 7.08 µM
53 | Cc1cc(=O)oc2c(CN3CCCC3)c(O)c(Cl)cc12 | inconclusive: 17.8 µM [inhibitor, single point]
54 | CSc1ccccc1OCc1cc(C(=O)NCCc2ccco2)no1 | inconclusive: 35.5 µM [inhibitor, single point]
55 | CCCn1c(C(C)Nc2nc(-c3ccc(Cl)c([N+](=O)[O-])c3)cs2)nc2ccccc21 (stereo unspecified) | inconclusive: 25.1 µM [inhibitor, single point]
56 | CN1C(=O)CC(c2cn(Cc3ccccc3)c3ccccc23)C1=O (stereo unspecified) | inconclusive: 12.6 µM [inhibitor, single point]
57 | NC(=O)c1c(NC(=O)C2COc3ccccc3O2)sc2c1CCN(Cc1ccccc1)C2 (stereo unspecified) | inconclusive: 15.8 µM [inhibitor, partial curve, poor fit]
58 | C=CCn1c(SCC(=O)O)nnc1-c1ccccc1 | inconclusive: 22.4 µM [inhibitor, single point]
59 | COc1ccc2c(c1)sc(=N)n2CC(=O)Nc1cc(C)cc(C)c1 | inconclusive: 6.31 µM [inhibitor, single point]
60 | CS(=O)(=O)c1ccc(NC(=O)CN2C(=O)C3CCCCC3C2=O)cc1 (stereo unspecified) | inactive
61 | COc1cccc(Nc2ncccc2C(=O)NCc2ccccc2)c1 | inconclusive: 12.6 µM [inhibitor, partial curve, poor fit]
62 | CC(C)CC(=O)NC(=S)NCc1ccccc1 | inconclusive: 35.5 µM [inhibitor, single point]
63 | COc1ccc(NC(=O)CN(C)C(=O)c2ccc3[nH]c4c(c3c2)CC(C)CC4)cc1 (stereo unspecified) | inconclusive: 6.31 µM [inhibitor, single point]
64 | CCN(CC)c1ccc(/C=c2\sc3nc4ccccc4n3c2=O)c(O)c1 | inconclusive: 15.8 µM [inhibitor, partial curve, poor fit]
65 | CC(C)n1cc(/C=C2/SC(=O)N(CC(=O)Nc3ccc4c(c3)OCO4)C2=O)c2ccccc21 | inconclusive: 10 µM [inhibitor, partial curve]
66 | O=C(Nc1nnc(-c2ccccn2)o1)c1cccc(Cl)c1 | inconclusive: 25.1 µM [inhibitor, single point]
